From a melanoma drug combination screen (doi:10.1371/journal.pone.0140310); values rounded.

First drug in all entries: selumetinib, 75 nM, Cn1cnc2c(F)c(Nc3ccc(Br)cc3Cl)c(C(=O)NOCCO)cc21

Compounds and concentrations:
YM155 (2 nM): COCC[n+]1c2c(n(Cc3cnccn3)c1C)C(=O)c1ccccc1C2=O
PF-562271 (400 nM): CN(c1ncccc1CNc1nc(Nc2ccc3c(c2)CC(=O)N3)ncc1C(F)(F)F)S(C)(=O)=O
embelin (6000 nM): CCCCCCCCCCCC1=C(O)C(=O)C=C(O)C1=O
sorafenib (2000 nM): CNC(=O)c1cc(Oc2ccc(NC(=O)Nc3ccc(Cl)c(C(F)(F)F)c3)cc2)ccn1
A-769662 (10000 nM): N#Cc1c(O)c2c(-c3ccc(-c4ccccc4O)cc3)csc2[nH]c1=O
SU6656 (2000 nM): CN(C)S(=O)(=O)c1ccc2c(c1)/C(=C/c1cc3c([nH]1)CCCC3)C(=O)N2
dasatinib (20 nM): Cc1nc(Nc2ncc(C(=O)Nc3c(C)cccc3Cl)s2)cc(N2CCN(CCO)CC2)n1
GW2580 (5000 nM): COc1ccc(COc2ccc(Cc3cnc(N)nc3N)cc2OC)cc1
SNS-314 (4 nM): O=C(Nc1cccc(Cl)c1)Nc1ncc(CCNc2ncnc3ccsc23)s1
CX-4945 (2000 nM): O=C(O)c1ccc2c(c1)nc(Nc1cccc(Cl)c1)c1ccncc12
KU-55933 (5000 nM): O=c1cc(-c2cccc3c2Sc2ccccc2S3)oc(N2CCOCC2)c1
sunitinib (2000 nM): CCN(CC)CCNC(=O)c1c(C)[nH]c(/C=C2\C(=O)Nc3ccc(F)cc32)c1C
indole-3-carbinol (4000 nM): OCc1c[nH]c2ccccc12
SNS-032 (50 nM): CC(C)(C)c1cnc(CSc2cnc(NC(=O)C3CCNCC3)s2)o1
TCS401 (8330 nM): O=C(O)C(=O)Nc1sc2c(c1C(=O)O)CCNC2
OSI-906 (2000 nM): C[C@]1(O)C[C@@H](c2nc(-c3ccc4ccc(-c5ccccc5)nc4c3)c3c(N)nccn32)C1
GSK0660 (5000 nM): COC(=O)c1sccc1S(=O)(=O)Nc1ccc(Nc2ccccc2)cc1OC
gemcitabine (2 nM): Nc1ccn([C@@H]2O[C@H](CO)[C@@H](O)C2(F)F)c(=O)n1
GW0742 (10000 nM): Cc1cc(SCc2sc(-c3ccc(C(F)(F)F)c(F)c3)nc2C)ccc1OCC(=O)O
etoposide (100 nM): COc1cc([C@@H]2c3cc4c(cc3[C@@H](O[C@@H]3O[C@@H]5CO[C@@H](C)O[C@H]5[C@H](O)[C@H]3O)[C@H]3COC(=O)[C@H]23)OCO4)cc(OC)c1O
cisplatin (8000 nM): N.N.[Cl][Pt][Cl]
temozolomide (10000 nM): Cn1nnc2c(C(N)=O)ncn2c1=O
GW441756 (2000 nM): Cn1cc(/C=C2\C(=O)Nc3cccnc32)c2ccccc21
CP-690550 (5000 nM): C[C@@H]1CCN(C(=O)CC#N)C[C@@H]1N(C)c1ncnc2[nH]ccc12
dorsomorphin (2000 nM): c1cc(-c2cnn3cc(-c4ccc(OCCN5CCCCC5)cc4)cnc23)ccn1
tamatinib (2000 nM): COc1cc(Nc2ncc(F)c(Nc3ccc4c(n3)NC(=O)C(C)(C)O4)n2)cc(OC)c1OC
U73122 (2000 nM): COc1ccc2c(c1)CCC1C2CCC2(C)C(NCCCCCCN3C(=O)C=CC3=O)CCC12 (stereo not shown)
erlotinib (4000 nM): C#Cc1cccc(Nc2ncnc3cc(OCCOC)c(OCCOC)cc23)c1
ZM336372 (10000 nM): Cc1ccc(NC(=O)c2cccc(N(C)C)c2)cc1NC(=O)c1ccc(O)cc1
Src-I1 (10000 nM): COc1cc2ncnc(Nc3ccc(Oc4ccccc4)cc3)c2cc1OC
XAV939 (10000 nM): Oc1nc(-c2ccc(C(F)(F)F)cc2)nc2c1CSCC2
palbociclib (200 nM): CC(=O)c1c(C)c2cnc(Nc3ccc(N4CCNCC4)cn3)nc2n(C2CCCC2)c1=O
vorinostat (400 nM): O=C(CCCCCCC(=O)Nc1ccccc1)NO
VX-702 (2000 nM): NC(=O)c1ccc(N(C(N)=O)c2c(F)cccc2F)nc1-c1ccc(F)cc1F
tozasertib (30 nM): Cc1cc(Nc2cc(N3CCN(C)CC3)nc(Sc3ccc(NC(=O)C4CC4)cc3)n2)n[nH]1
KU-0063794 (100 nM): COc1ccc(-c2ccc3c(N4CCOCC4)nc(N4C[C@@H](C)O[C@@H](C)C4)nc3n2)cc1CO
pioglitazone (10000 nM): CCc1ccc(CCOc2ccc(CC3SC(=O)NC3=O)cc2)nc1 (stereo not shown)
PLX4720 (400 nM): CCCS(=O)(=O)Nc1ccc(F)c(C(=O)c2c[nH]c3ncc(Cl)cc23)c1F

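Human melanoma cell lines in 1,536-well plates were treated with a pair of drugs for 72 h, then fixed, stained and imaged. The read-out is the fraction of cleaved-PARP-positive nuclei, in % of that fraction in the DMSO control; 200 means twice the control level of this apoptosis marker. Concentrations were fixed for each drug; these are the higher of two levels. These are primary screening values without error estimates. Basal and induced levels differ widely between cell lines.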 An unselected part of the screen is shown. An entry leaves out what has no value listed here. A dash means that no value is listed here.

* temozolomide : UACC-257: 56.1; WM1745: 91.6; WM115: 148; G-361: 188; COLO 829: 72.2; SK-MEL-2: 247
* embelin : UACC-257: 25.3; WM115: 171; G-361: 229; COLO 829: 158; SK-MEL-2: 221
* U73122 : UACC-257: 105; WM115: 75.4; G-361: 202; COLO 829: 83.6; SK-MEL-2: 172
* Src-I1 : UACC-257: 32.3; WM115: 221; G-361: 70.9; COLO 829: 94.7; SK-MEL-2: 132
* etoposide : UACC-257: 36.4; WM1745: 101; WM115: 156; G-361: 278; COLO 829: 170; SK-MEL-2: 628
* A-769662 : UACC-257: 63.9; WM115: 121; G-361: 337; COLO 829: 132; SK-MEL-2: 266
* YM155 : UACC-257: 1540; WM1745: 84.6; WM115: 231; G-361: 157; COLO 829: 175; SK-MEL-2: 384
* ZM336372 : UACC-257: 72.1; WM1745: 80.3; WM115: 99.2; G-361: 389; COLO 829: 102; SK-MEL-2: 719
* indole-3-carbinol : UACC-257: 42.5; WM1745: 131; WM115: 150; G-361: 184; COLO 829: 138; SK-MEL-2: 323
* PLX4720 : UACC-257: 72.4; WM1745: 120; WM115: 81.0; G-361: 407; COLO 829: 290; SK-MEL-2: 139
* sorafenib : UACC-257: 168; WM1745: 122; WM115: 289; G-361: 134; COLO 829: 131; SK-MEL-2: 558
* GW2580 : UACC-257: 23.6; WM115: 162; G-361: 503; COLO 829: 105; SK-MEL-2: 257
* XAV939 : UACC-257: 78.9; WM115: 37.3; G-361: 226; COLO 829: 133; SK-MEL-2: 151
* KU-0063794 : UACC-257: 50.3; WM115: 132; G-361: 420; COLO 829: 93.6; SK-MEL-2: 332
* palbociclib : UACC-257: 32.4; WM1745: 139; WM115: 386; G-361: 91.3; COLO 829: 99.0; SK-MEL-2: 196
* vorinostat : UACC-257: 128; WM1745: 340; WM115: 87.0; G-361: 309; COLO 829: 29.4; SK-MEL-2: 456
* SNS-314 : UACC-257: 69.0; WM1745: 109; WM115: 56.3; G-361: 322; COLO 829: 96.0; SK-MEL-2: 187
* SU6656 : UACC-257: 83.3; WM1745: 174; WM115: 411; G-361: 159; COLO 829: 189; SK-MEL-2: 209
* tozasertib : UACC-257: 39.9; WM1745: 128; WM115: 71.8; G-361: 205; COLO 829: 205; SK-MEL-2: 270
* erlotinib : UACC-257: 57.7; WM1745: 193; WM115: 195; G-361: 191; COLO 829: 192; SK-MEL-2: 594
* tamatinib : UACC-257: 98.6; WM1745: 291; WM115: 317; G-361: 228; COLO 829: 98.3; SK-MEL-2: 509
* CP-690550 : UACC-257: 71.8; WM1745: 86.0; WM115: 109; G-361: 166; COLO 829: 64.4; SK-MEL-2: 157
* KU-55933 : UACC-257: 10.6; WM115: 79.0; G-361: 413; COLO 829: 145; SK-MEL-2: 405
* sunitinib : UACC-257: 39.1; WM1745: 228; WM115: 279; G-361: 144; COLO 829: 183; SK-MEL-2: 902
* CX-4945 : UACC-257: 50.7; WM1745: 136; WM115: 326; G-361: 622; COLO 829: 153; SK-MEL-2: 904
* TCS401 : UACC-257: 70.4; WM115: 48.2; G-361: 130; COLO 829: 173; SK-MEL-2: 150
* PF-562271 : UACC-257: 173; WM1745: 141; WM115: 391; G-361: 163; COLO 829: 171; SK-MEL-2: 473
* gemcitabine : UACC-257: 54.0; WM1745: 178; WM115: 97.2; G-361: 353; COLO 829: 249; SK-MEL-2: 192
* GSK0660 : UACC-257: 141; WM115: 306; G-361: 314; COLO 829: 102; SK-MEL-2: 137
* VX-702 : UACC-257: 74.0; WM1745: 80.9; WM115: 118; G-361: 364; COLO 829: 59.5; SK-MEL-2: 96.1
* OSI-906 : UACC-257: 42.3; WM1745: 125; WM115: 135; G-361: 430; COLO 829: 101; SK-MEL-2: 1140
* dasatinib : UACC-257: 50.9; WM1745: 161; WM115: 1210; G-361: 136; COLO 829: 101; SK-MEL-2: 232
* dorsomorphin : UACC-257: 61.6; WM115: 193; G-361: 517; COLO 829: 41.3; SK-MEL-2: 32.1
* SNS-032 : UACC-257: 45.3; WM1745: 112; WM115: 146; G-361: 264; COLO 829: 150; SK-MEL-2: 212
* GW0742 : UACC-257: 60.0; WM115: 272; G-361: 283; COLO 829: 104; SK-MEL-2: 213
* GW441756 : UACC-257: 27.0; WM115: 63.1; G-361: 297; COLO 829: 99.0; SK-MEL-2: 22.9
* pioglitazone : UACC-257: 66.0; WM115: 159; G-361: 251; COLO 829: 135; SK-MEL-2: 173
* cisplatin : UACC-257: 120; WM1745: 100; WM115: 200; G-361: 145; COLO 829: 77.5; SK-MEL-2: 142

Once more, the final 3:

| Second drug | UACC-257 | WM1745 | WM115 | G-361 | COLO 829 | SK-MEL-2 |
|---|---|---|---|---|---|---|
| GW441756 | 27.0 | - | 63.1 | 297 | 99.0 | 22.9 |
| pioglitazone | 66.0 | - | 159 | 251 | 135 | 173 |
| cisplatin | 120 | 100 | 200 | 145 | 77.5 | 142 |